Record: PubChem BioAssay AID720505 (Drosophila RNAi Screening Center, 2013)

- Screen: 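Knock-downs that reduce calcium influx once internal stores are emptied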 (primary screen)
- System: Drosophila S2R+ cells
- Knock-down reagent: long dsRNA against Drosophila genes
- Treatment: thapsigargin (2 µM) in calcium-free buffer to empty internal stores, then 2 mM calcium added back
- Measured: 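Fluo-4 signal in 384-well plates read on a FLIPR after thapsigargin (2 µM, calcium-free) store depletion and 2 mM calcium add-back; unnormalised mean endpoint per well; screen run twice, selected wells retested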
- Direction: calcium signal and retest calcium signal: higher = more calcium entry after store depletion
- Hit rule: 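About 1500 genes called as lowering calcium entry, by varying amounts, judged against per-plate control wells with STIM1 as positive and Rho1 as negative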
- Calls: active = called as lowering calcium entry; inactive = not called
The screen tested about 20,000 reagents; below is an unselected part of those that have a named target and a result. In the full data, about 2,100 (10%) were called active. 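Raw plate signals without normalisation; calls rest on control-based scores that were not deposited; replicate 2 separates called from uncalled poorly.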 Unmarked entries are inactive. Reagents against one gene are numbered here. A plus sign joins genes that one reagent is predicted to hit. Not stated in the record: the amount of reagent, the time to read-out.

fs(2)ltoPP43 (GeneID 49505)
- calcium signal, replicate 1: 123
- calcium signal, replicate 2: 98

Cyp4e1 (GeneID 44632)
- calcium signal, replicate 1: 151
- calcium signal, replicate 2: 111

MED23 + CG3700 #1
- calcium signal, replicate 1: 120
- calcium signal, replicate 2: 253

MED23 + CG3700 #2
- calcium signal, replicate 1: 143
- calcium signal, replicate 2: 89.3

CG8100 (GeneID 39565)
- calcium signal, replicate 1: 82.2
- calcium signal, replicate 2: 117

Saysd1 (GeneID 43029)
- calcium signal, replicate 1: 290
- calcium signal, replicate 2: 170

ppk7 (GeneID 33886)
- calcium signal, replicate 1: 49.6 (active)
- calcium signal, replicate 2: 188

repo (GeneID 47285) #1
- calcium signal, replicate 1: 280
- calcium signal, replicate 2: 118

repo (GeneID 47285) #2
- calcium signal, replicate 1: 151
- calcium signal, replicate 2: 148

Tektin-A (GeneID 34934)
- calcium signal, replicate 1: 69.9 (active)
- calcium signal, replicate 2: 95.9

Cpr49Af (GeneID 36352)
- calcium signal, replicate 1: 137
- calcium signal, replicate 2: 162

cyc (GeneID 40162)
- calcium signal, replicate 1: 132
- calcium signal, replicate 2: 149

CG30089 (GeneID 36736) #1
- calcium signal, replicate 1: 123
- calcium signal, replicate 2: 144
- retest calcium signal, replicate 1: 95.8
- retest calcium signal, replicate 2: 103

CG30089 (GeneID 36736) #2
- calcium signal, replicate 1: 38.8 (active)
- calcium signal, replicate 2: 111

CG30089 (GeneID 36736) #3
- calcium signal, replicate 1: 128
- calcium signal, replicate 2: 136

CG30089 (GeneID 36736) #4
- calcium signal, replicate 1: 98.4
- calcium signal, replicate 2: 146

CG30089 (GeneID 36736) #5
- calcium signal, replicate 1: 61.4
- calcium signal, replicate 2: 194

Mal-A4 (GeneID 35827)
- calcium signal, replicate 1: 155
- calcium signal, replicate 2: 140

CG42561 (GeneID 8674029)
- calcium signal, replicate 1: 101
- calcium signal, replicate 2: 93.8

CG11127 (GeneID 35673)
- calcium signal, replicate 1: 73.1 (active)
- calcium signal, replicate 2: 154

CG11406 (GeneID 37877) #1
- calcium signal, replicate 1: 64.4 (active)
- calcium signal, replicate 2: 87.9

CG11406 (GeneID 37877) #2
- calcium signal, replicate 1: 99.8
- calcium signal, replicate 2: 142

Girdin (GeneID 38385)
- calcium signal, replicate 1: 88.3
- calcium signal, replicate 2: 113

beta-Man (GeneID 40524) #1
- calcium signal, replicate 1: 115
- calcium signal, replicate 2: 96.3

beta-Man (GeneID 40524) #2
- calcium signal, replicate 1: 121
- calcium signal, replicate 2: 129

caps (GeneID 39493) #1
- calcium signal, replicate 1: 108
- calcium signal, replicate 2: 92

caps (GeneID 39493) #2
- calcium signal, replicate 1: 49.6 (active)
- calcium signal, replicate 2: 156

CG8326 (GeneID 32738)
- calcium signal, replicate 1: 171
- calcium signal, replicate 2: 159

nocte (GeneID 31976)
- calcium signal, replicate 1: 126
- calcium signal, replicate 2: 98.3

CG8814 (GeneID 33492)
- calcium signal, replicate 1: 91.5
- calcium signal, replicate 2: 220

Lcp65Af (GeneID 45017)
- calcium signal, replicate 1: 91.7
- calcium signal, replicate 2: 68

Dek (GeneID 47906)
- calcium signal, replicate 1: 113
- calcium signal, replicate 2: 90.3

Pgant4 (GeneID 261610)
- calcium signal, replicate 1: 166
- calcium signal, replicate 2: 114

RIC-3 (GeneID 37384) #1
- calcium signal, replicate 1: 158
- calcium signal, replicate 2: 90.2

RIC-3 (GeneID 37384) #2
- calcium signal, replicate 1: 54.5
- calcium signal, replicate 2: 124

A few values from the list.
For “calcium signal, replicate 1”, MED23 + CG3700 #1 shows 120
Under “calcium signal, replicate 2”, RIC-3 (GeneID 37384) #2 reads 124
For “calcium signal, replicate 1”, caps (GeneID 39493) #1 reads 108
Entry for CG30089 (GeneID 36736) #2 in “calcium signal, replicate 1”: 38.8 (active)
Under “calcium signal, replicate 1”, beta-Man (GeneID 40524) #2 reads 121
CG30089 (GeneID 36736) #5, calcium signal, replicate 1: 61.4
